Source: US20160159888A1
These are yes or no findings as the source states them, for the method shown. A result given as binding can be weak or reduced; the word gives no strength.

Assays:
[1] = molecular target: recombinant S100A4 protein (species not stated for the experiment); experiment: immunoprecipitation with Protein G Sepharose, Western blot (FIG. 4B)
[2] = molecular target: recombinant S100A4 protein (species not stated for the experiment); experiment: competitive immunoprecipitation

- binding [1]: binds
- binding [2]: binds
B1: anti-S100A4 mouse monoclonal antibody, clone 6B12 (antibody, V domains shown)
VH: DVQLQESGPGLVKPSQSLSLTCSVTGDSFTNDYYWNWIRQFPGSKLEWMGHIGYGGNINYNPSLKNRISITRDTSKNQFFLRLTSVTTEDTATYYCTRESFYDGYPFDYWGQGTLVTVSA
VL: DIQMTQTTSSLSASLGDRVTISCRASQDIRNYLNWYQQRPGGTLKLLIYYTSRLHSGVPSRFSGSGSGTDYSLTISNLEQEDIATYFCQQGNSLPRTFGGGTKLEIK
